Results taken from PubChem BioAssay AID540256 (National Center for Advancing Translational Sciences (NCATS), 2011).
The whole screen tested about 300,000 compounds, of which about 3,700 (1.2%) were called active. Inconclusive results, whose numbers are uncertain, are shown with a selection of clear calls. Calls follow the shape of the full dose curve; tested in HEK293 cells. Where the call is inconclusive, the potency comes from a doubtful curve fit.

test: qHTS for Inhibitors of binding or entry into cells for Lassa Virus; conditions: Lassa virus pseudotype entry inhibition, cell reporter; series mostly up to 37.9 µM; also: nearly all actives have a fitted effect of over 50% in size
Potency is read from the fitted curve at half-maximal effect.

Compound | Potency
O=C(Nc1ccc(N2CCOCC2)nc1)c1cccs1 | inactive
COc1cccc(C(=O)NNC(=O)Cc2ccc(Cl)cc2)c1 | inactive
CC(C)C(NC(=O)c1ccc(Cl)cc1Cl)C(=O)N1CCC1 (stereo unspecified) | inactive
COc1ccc(-c2nc3cc(NC(=O)Cc4ccc(Cl)cc4)ccc3o2)cc1OC | inconclusive: 0.891 µM [inhibitor, full curve, poor fit]
COc1cc(C(=O)NC(C)c2cnn(-c3ccccc3C)c2C)cc(OC)c1OC (stereo unspecified) | inconclusive: 11.2 µM [inhibitor, partial curve, poor fit]
CCCS(=O)(=O)c1nc(S(=O)(=O)c2ccc(C)cc2)c(NCc2ccco2)s1 | inconclusive: 11.2 µM [inhibitor, partial curve, poor fit]
Cc1ccc(Cl)cc1Nc1nc2ccccc2c2nncn12 | inactive
CCCCn1c(O)c(C(CC)=NCCc2ccccc2)c(=O)[nH]c1=O | inconclusive: 12.6 µM [inhibitor, partial curve, poor fit]
CCOc1ccc(C(=O)Nc2cc(NC(=O)c3ccco3)ccc2OC)cc1Br | inconclusive: 1.41 µM [inhibitor, partial curve, poor fit]
COc1ccc(Nc2c3c(nc4ccc(NC(=O)/C=C/c5cc(OC)c(OC)c(OC)c5)cc24)CCCC3)cc1OC | inconclusive: 1.78 µM [inhibitor, full curve, poor fit]
CCN(CC)c1ccc(S(=O)(=O)N2CCOCC2)cc1NC(=O)CSc1nnc(N)s1 | inconclusive: 6.31 µM [inhibitor, single point]
CC(=O)Nc1ccc(/C=N/OCC(=O)Nc2ccc(C)cc2)cc1 | inconclusive: 12.6 µM [activator, partial curve, poor fit]
COc1ccccc1C(CNC(=O)c1cccc(S(=O)(=O)N2CCCc3ccccc32)c1)N(C)C (stereo unspecified) | inconclusive: 35.5 µM [inhibitor, single point]
O=[N+]([O-])c1ccccc1S(=O)(=O)Oc1ccc(/C=N/n2cnnc2)cc1 | inconclusive: 6.31 µM [inhibitor, full curve, poor fit]
CN(CC(=O)Nc1cccc(F)c1)CC(=O)Nc1ccc(Cl)cc1[N+](=O)[O-] | inconclusive: 3.98 µM [inhibitor, single point]
CCN(CC)C1CCN(C(=O)c2cc(COc3ccc(-n4cncn4)cc3)on2)C1 (stereo unspecified) | inconclusive: 1.12 µM [inhibitor, full curve, poor fit]
O=C(Nc1ccc(S(=O)(=O)N2CCCC2)cc1Cl)C1=COCCO1 | inconclusive: 3.66 µM [activator, single point]
O=C(NCC1CCN(S(=O)(=O)c2ccccc2)CC1)Nc1ccccc1 | inconclusive: 7.08 µM [inhibitor, full curve, poor fit]
Fc1cccc(Cl)c1/C=C/c1cnc2ccccc2n1 | inconclusive: 0.891 µM [activator, partial curve, poor fit]
Cc1cc(C)c2nc(SCC(=O)NNC(=O)c3ccco3)c(C)cc2c1 | inconclusive: 17.8 µM [inhibitor, partial curve, poor fit]
O=C(Nc1ccccc1O)c1ccccc1O | inconclusive: 29.1 µM [inhibitor, single point]
CCC(C)(c1ccc(C(=O)OC)s1)c1ccc(C(=O)OC)s1 | inconclusive: 20.6 µM [inhibitor, partial curve]

Compound | Potency
COc1cccc(C(=O)Nc2ccc(NC(C)=O)cc2)c1 | inactive
CSCC[C@H](NC(=O)c1ccc2ccccc2c1)C(=O)N1CCC2(CC1)NCCc1[nH]cnc12 | inconclusive: 14.1 µM [activator, single point]
COc1ccc(C2CC2C(=O)c2ccccn2)cc1 (stereo unspecified) | inconclusive: 6.31 µM [inhibitor, partial curve, poor fit]
Cc1ccc(NC(=O)C(C)OC(=O)Cc2c[nH]c3ccccc23)cc1S(=O)(=O)N1CCOCC1 (stereo unspecified) | inconclusive: 0.794 µM [activator, single point]
COCCCNS(=O)(=O)c1cc(-c2onc(C)c2C)ccc1OC | inactive
COc1ccc(Br)cc1CNC(=O)C1CCCN(c2nc3ccccc3o2)C1 (stereo unspecified) | inactive
COc1ccc(-c2noc(CCC(=O)N(C)c3ccccc3C)n2)cc1 | inconclusive: 12.6 µM [inhibitor, partial curve, poor fit]
CCOc1ccc(N2C(=O)Nc3ccccc3C2(O)C(=O)NCc2ccc(F)cc2)cc1 (stereo unspecified) | inconclusive: 15.8 µM [inhibitor, single point]
CCOC(=O)c1c(CN2CCNCC2)nc2ccc(Cl)cc2c1-c1ccccc1 | inactive
O=C(Cc1ccc(S(=O)(=O)N2CCCCC2)s1)Nc1ccc(F)c(F)c1 | inconclusive: 16.4 µM [inhibitor, single point]
CCCOc1ccc(N/C=C/C(=O)c2ccc(OC)c(OC)c2)cc1 | inconclusive: 7.08 µM [inhibitor, full curve, poor fit]
CCN1C(=NCc2ccc3c(c2)OCO3)NC(CCc2ccccc2)C(C(=O)OC)=C1C (stereo unspecified) | inconclusive: 2.11 µM [activator, partial curve, poor fit]
CSc1ccc(CN2CCN(C(=O)COc3ccc(C)cc3)CC2)cc1 | inconclusive: 8.91 µM [inhibitor, partial curve, poor fit]
CCN(CC)CCCNC(=O)c1cc(Sc2nnc(C)s2)nc2ccccc12 | inconclusive: 0.316 µM [inhibitor, partial curve, poor fit]
O=C(CCc1nc2cccnc2n1Cc1cccs1)Nc1cccc(C(F)(F)F)c1 | inactive
CCOc1ccc(OCC(=O)Nc2cccc(S(=O)(=O)NC3=NCCC3)c2)cc1 | inconclusive: 11.2 µM [inhibitor, partial curve, poor fit]
O=C(c1ccc(C(F)(F)F)cc1)N1CCC(c2noc(-c3ccc(S(=O)(=O)N4CCCC4)cc3)n2)CC1 | inconclusive: 6.31 µM [inhibitor, partial curve, poor fit]
CCC12CN3CC(CC)(CN(C1)C3c1c(O)ccc3ccccc13)C2=O (stereo unspecified) | inconclusive: 2.24 µM [inhibitor, full curve]
O=C(COc1coc(CN2CCc3ccccc3C2)cc1=O)Nc1ccc(Cl)cc1 | inconclusive: 1.26 µM [inhibitor, single point]
CCCN(c1ccc(C(C)C)cc1)S(=O)(=O)c1ccc2c(c1)CCN2C(=O)CC | inconclusive: 1.26 µM [inhibitor, full curve, poor fit]
O=C(N/N=C/c1cccc(C(F)(F)F)c1)c1cc2c(s1)-c1ccccc1CC2 | inconclusive: 25.1 µM [inhibitor, single point]
COc1ccc(/C=N/c2c(-c3ccco3)nc3ccccn23)cc1OC | inactive

Sorted by length of the SMILES (largest number first): part of the list above.
Compound | Potency
CCN(CC)c1ccc(S(=O)(=O)N2CCOCC2)cc1NC(=O)CSc1nnc(N)s1 | inconclusive: 6.31 µM [inhibitor, single point]
O=C(N/N=C/c1cccc(C(F)(F)F)c1)c1cc2c(s1)-c1ccccc1CC2 | inconclusive: 25.1 µM [inhibitor, single point]
CCOC(=O)c1c(CN2CCNCC2)nc2ccc(Cl)cc2c1-c1ccccc1 | inactive
O=C(NCC1CCN(S(=O)(=O)c2ccccc2)CC1)Nc1ccccc1 | inconclusive: 7.08 µM [inhibitor, full curve, poor fit]

The results go on.

Compound | Potency
CCOc1cc(N2CCOCC2)c(OCC)cc1NC(=O)CC12CC3CC(CC(C3)C1)C2 | inconclusive: 15.8 µM [inhibitor, single point]
COc1ccc(Cc2nnc(SCC(=O)c3ccc(OC)cc3)o2)cc1 | inconclusive: 29.1 µM [inhibitor, single point]
Cc1oc(C)c2c(=O)ccc3c(c12)OC(N)=C(C#N)C3c1ccccc1Cl (stereo unspecified) | inconclusive: 7.94 µM [inhibitor, partial curve]
CCOC(=O)C(O)(c1ccc(N(C)C(=O)COc2ccccc2)cc1)C(F)(F)F (stereo unspecified) | inconclusive: 9.2 µM [inhibitor, partial curve]
C/C(=N\Nc1ccc(C(=O)O)cc1)c1ccc(-n2ccnc2)cc1 | inconclusive: 6.31 µM [activator, single point]
Cc1cc[n+](CC(=O)Nc2nc3ccccc3s2)cc1 | inactive
Cc1c(O)ccc2cc(S(=O)(=O)c3ccccc3)c(=O)oc12 | inactive
COc1ccc(N2CCN(C(=O)CCNS(=O)(=O)c3cccs3)CC2)cc1 | inactive
COc1ccc(NC(=O)C(c2ccccc2)c2ccccc2)c(OC)c1 | inconclusive: 25.1 µM [inhibitor, partial curve, poor fit]
N#Cc1ccc(-c2cccs2)nc1SCc1c(F)cccc1Cl | inactive
CCOC(=O)C1(CC2CCCCO2)CCN(Cc2nccn2-c2ccc(OC)cc2)CC1 (stereo unspecified) | inactive
CN(C)c1ccc(CN(CC2CCCO2)C(=O)COc2ccccc2Cl)cc1 (stereo unspecified) | inconclusive: 8.91 µM [inhibitor, partial curve, poor fit]
Cc1ccc(S(=O)(=O)NCCC(=O)Nc2nccs2)cc1 | inconclusive: 0.794 µM [inhibitor, single point]
O=C(COC(=O)c1cccnc1Cl)Nc1ccc2c(c1)OCCO2 | inactive
Cc1cc(NC(=O)COC(=O)c2c(C)noc2C)ccc1Br | inactive
Cc1cccc(NC(=O)c2cccc(C(=O)Nc3cccc(C)c3)n2)c1 | inconclusive: 3.55 µM [inhibitor, single point]
O=C(COC(=O)c1ccc([N+](=O)[O-])s1)c1ccc[nH]1 | inactive
Cc1cc(S(=O)(=O)N2CCCCC2CCNC(=O)C(=O)NC2CC2)ccc1F (stereo unspecified) | inconclusive: 1 µM [inhibitor, single point]
CS(=O)(=O)Nc1ccccc1C(=O)Nc1cc(Cl)cc(Cl)c1 | inconclusive: 29.1 µM [inhibitor, single point]
COc1cccc(C(=O)NNC(=O)Cc2csc(N)n2)c1 | inactive
CCOC(=O)C1=C(C)Nc2ccccc2N=C1NC(=O)C1CCN(C(=O)c2ccccc2C)CC1 | inactive
COc1ccccc1C(=O)NC1CCN(C(=S)NCCc2ccccc2)CC1 | inconclusive: 10 µM [inhibitor, partial curve, poor fit]
